Source: patent US20190169241A1 (BOARD OF TRUSTEES OF THE UNIVERSITY OF ILLINOIS, published 2019)
No constants are given. Whether binding was seen depends on the method and setting. In cells and extracts the contact can be indirect. Some binding calls cover weakened binding; strength is not graded here.

The chains behind the UniProt entries cited, without tags or fusion partners. Residues count along the entry.
UniProt P35968, residues 20-1356: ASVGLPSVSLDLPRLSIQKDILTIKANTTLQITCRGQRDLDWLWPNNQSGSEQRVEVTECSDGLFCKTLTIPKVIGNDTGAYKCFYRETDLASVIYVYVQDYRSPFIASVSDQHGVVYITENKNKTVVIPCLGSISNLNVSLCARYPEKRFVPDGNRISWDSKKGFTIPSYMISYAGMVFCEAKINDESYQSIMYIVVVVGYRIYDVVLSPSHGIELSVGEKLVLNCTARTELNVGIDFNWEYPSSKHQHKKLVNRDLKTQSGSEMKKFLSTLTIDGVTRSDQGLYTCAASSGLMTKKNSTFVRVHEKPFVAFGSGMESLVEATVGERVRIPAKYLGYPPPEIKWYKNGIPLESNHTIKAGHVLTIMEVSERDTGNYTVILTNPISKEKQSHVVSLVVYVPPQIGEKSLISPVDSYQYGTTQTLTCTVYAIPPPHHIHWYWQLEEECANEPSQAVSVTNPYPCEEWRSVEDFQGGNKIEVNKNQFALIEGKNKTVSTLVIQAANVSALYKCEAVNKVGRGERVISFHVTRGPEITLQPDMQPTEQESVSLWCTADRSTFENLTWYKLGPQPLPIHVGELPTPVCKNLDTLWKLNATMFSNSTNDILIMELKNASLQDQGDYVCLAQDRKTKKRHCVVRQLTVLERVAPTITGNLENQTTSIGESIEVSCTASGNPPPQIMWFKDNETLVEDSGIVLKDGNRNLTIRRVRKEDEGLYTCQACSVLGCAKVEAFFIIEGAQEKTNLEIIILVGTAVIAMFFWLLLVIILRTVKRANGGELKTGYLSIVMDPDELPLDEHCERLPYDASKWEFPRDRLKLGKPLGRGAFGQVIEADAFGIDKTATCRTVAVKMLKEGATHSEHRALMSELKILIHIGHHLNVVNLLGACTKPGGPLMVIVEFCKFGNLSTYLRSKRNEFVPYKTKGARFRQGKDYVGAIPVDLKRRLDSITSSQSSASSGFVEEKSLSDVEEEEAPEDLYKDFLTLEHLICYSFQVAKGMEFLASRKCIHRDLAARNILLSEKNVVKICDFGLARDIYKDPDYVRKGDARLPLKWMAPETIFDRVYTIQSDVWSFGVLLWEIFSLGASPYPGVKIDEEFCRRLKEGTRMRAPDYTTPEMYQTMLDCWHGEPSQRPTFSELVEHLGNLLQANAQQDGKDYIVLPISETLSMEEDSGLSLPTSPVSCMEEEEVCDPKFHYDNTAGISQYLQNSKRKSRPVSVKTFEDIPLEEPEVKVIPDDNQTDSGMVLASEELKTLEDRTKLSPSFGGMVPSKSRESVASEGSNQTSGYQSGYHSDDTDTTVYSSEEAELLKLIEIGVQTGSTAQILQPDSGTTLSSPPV

target: vascular endothelial growth factor receptor 2 (VEGFR2), endogenous, from HUVEC lysates (human) (UniProt P35968); test: pull-down (told again with the network formation assay)

binding, binds:
SRGTPVDERLFLIVRVTVQLSHP (peptide, not shown: small tags and cut ends) [DUF2C5 (residues 1238-1260 of KIF13B), recombinant truncated mutant from bacteria]

target: vascular endothelial growth factor receptor 2 (VEGFR2), endogenous, from HUVEC lysates (human) (UniProt P35968); test: pull-down with endogenous VEGFR2 from HUVEC lysates

binding, binds:
SRGTPVDERLFLIVRVTVQLSHP (peptide, not shown: small tags and cut ends) [DUF2C5 (residues 1238-1260 of KIF13B), recombinant truncated mutant from bacteria]
RGTPVDERLFLIVRVTVQLSHP [DUF2C5a]
GTPVDERLFLIVRVTVQLSHP [DUF2C5b]
RGTPVDERLFLIVRVTVQLS [DUF2C5c]
RGTPVDERLFLIVRVTVQ [DUF2C5d]
